Assay results published in US20220305003A1, “METHODS OF TREATING CANCER WITH AN INHIBITOR OF ZNF827” (CHILDREN'S MEDICAL RESEARCH INSTITUTE, priority 2019, published 2022).

Experiments:
Test in all cases: EMSA
[1] = biological target: T1, ZNF827 ZnF1-3 deleted (Homo sapiens) (UniProt Q17R98); settings: purified recombinant protein, label: 32P
T1 sequence: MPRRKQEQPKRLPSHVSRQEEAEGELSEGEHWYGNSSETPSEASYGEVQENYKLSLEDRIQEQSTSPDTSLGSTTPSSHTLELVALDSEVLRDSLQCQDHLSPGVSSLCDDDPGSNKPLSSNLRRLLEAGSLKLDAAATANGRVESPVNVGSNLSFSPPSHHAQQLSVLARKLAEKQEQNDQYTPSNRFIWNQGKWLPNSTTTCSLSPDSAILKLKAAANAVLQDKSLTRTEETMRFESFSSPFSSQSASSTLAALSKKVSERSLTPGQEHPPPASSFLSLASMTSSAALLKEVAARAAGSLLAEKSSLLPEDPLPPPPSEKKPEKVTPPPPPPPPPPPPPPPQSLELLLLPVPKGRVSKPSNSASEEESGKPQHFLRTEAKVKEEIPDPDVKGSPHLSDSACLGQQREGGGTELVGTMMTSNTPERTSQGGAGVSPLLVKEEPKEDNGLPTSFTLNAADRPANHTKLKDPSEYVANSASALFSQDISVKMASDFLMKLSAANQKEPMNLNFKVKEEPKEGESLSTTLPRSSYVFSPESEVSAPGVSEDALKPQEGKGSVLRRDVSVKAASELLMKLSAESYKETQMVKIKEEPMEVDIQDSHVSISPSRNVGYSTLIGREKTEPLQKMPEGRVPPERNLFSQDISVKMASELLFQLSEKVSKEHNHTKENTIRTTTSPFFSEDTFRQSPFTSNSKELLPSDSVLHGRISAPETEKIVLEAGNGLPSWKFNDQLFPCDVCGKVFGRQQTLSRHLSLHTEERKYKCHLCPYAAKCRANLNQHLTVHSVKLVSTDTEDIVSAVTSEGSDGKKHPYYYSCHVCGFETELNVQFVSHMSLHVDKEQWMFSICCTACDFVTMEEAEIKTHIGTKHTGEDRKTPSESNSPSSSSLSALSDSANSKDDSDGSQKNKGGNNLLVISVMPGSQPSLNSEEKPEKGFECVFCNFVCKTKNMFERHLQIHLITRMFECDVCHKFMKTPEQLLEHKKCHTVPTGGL

[2] = biological target: T2, ZNF827 full length (Homo sapiens) (UniProt Q17R98); settings: purified recombinant protein, label: 32P
T2 sequence: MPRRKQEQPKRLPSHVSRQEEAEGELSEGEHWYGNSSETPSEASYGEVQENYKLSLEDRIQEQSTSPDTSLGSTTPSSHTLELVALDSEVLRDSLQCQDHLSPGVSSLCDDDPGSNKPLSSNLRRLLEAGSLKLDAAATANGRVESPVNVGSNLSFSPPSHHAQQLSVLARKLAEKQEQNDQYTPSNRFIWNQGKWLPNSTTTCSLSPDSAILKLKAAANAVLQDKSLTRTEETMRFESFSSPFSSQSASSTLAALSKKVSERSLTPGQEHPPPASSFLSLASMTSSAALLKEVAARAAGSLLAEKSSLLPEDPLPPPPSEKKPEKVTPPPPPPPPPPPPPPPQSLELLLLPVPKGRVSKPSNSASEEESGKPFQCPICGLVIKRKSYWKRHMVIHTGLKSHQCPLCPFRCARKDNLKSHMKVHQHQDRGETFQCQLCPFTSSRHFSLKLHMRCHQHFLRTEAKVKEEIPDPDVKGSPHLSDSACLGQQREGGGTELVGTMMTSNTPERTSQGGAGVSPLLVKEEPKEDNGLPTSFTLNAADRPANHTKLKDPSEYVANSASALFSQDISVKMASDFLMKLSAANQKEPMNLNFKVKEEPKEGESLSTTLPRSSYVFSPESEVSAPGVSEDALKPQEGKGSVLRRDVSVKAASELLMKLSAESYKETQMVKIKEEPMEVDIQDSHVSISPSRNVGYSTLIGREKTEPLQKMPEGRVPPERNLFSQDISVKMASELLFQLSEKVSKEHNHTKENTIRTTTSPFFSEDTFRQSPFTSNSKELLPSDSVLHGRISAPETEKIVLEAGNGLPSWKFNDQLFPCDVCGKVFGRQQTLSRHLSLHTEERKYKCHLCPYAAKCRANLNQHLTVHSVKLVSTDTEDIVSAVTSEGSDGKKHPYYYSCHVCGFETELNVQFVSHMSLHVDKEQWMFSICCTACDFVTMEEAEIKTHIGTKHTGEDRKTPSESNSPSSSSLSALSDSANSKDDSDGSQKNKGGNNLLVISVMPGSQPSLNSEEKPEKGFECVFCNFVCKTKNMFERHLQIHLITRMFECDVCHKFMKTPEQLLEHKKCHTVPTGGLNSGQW

[3] = biological target: T3, ZNF827 SUMOylation mutant (Homo sapiens) (UniProt Q17R98); settings: any of the mutant proteins; purified recombinant protein; label: 32P
T3 sequence: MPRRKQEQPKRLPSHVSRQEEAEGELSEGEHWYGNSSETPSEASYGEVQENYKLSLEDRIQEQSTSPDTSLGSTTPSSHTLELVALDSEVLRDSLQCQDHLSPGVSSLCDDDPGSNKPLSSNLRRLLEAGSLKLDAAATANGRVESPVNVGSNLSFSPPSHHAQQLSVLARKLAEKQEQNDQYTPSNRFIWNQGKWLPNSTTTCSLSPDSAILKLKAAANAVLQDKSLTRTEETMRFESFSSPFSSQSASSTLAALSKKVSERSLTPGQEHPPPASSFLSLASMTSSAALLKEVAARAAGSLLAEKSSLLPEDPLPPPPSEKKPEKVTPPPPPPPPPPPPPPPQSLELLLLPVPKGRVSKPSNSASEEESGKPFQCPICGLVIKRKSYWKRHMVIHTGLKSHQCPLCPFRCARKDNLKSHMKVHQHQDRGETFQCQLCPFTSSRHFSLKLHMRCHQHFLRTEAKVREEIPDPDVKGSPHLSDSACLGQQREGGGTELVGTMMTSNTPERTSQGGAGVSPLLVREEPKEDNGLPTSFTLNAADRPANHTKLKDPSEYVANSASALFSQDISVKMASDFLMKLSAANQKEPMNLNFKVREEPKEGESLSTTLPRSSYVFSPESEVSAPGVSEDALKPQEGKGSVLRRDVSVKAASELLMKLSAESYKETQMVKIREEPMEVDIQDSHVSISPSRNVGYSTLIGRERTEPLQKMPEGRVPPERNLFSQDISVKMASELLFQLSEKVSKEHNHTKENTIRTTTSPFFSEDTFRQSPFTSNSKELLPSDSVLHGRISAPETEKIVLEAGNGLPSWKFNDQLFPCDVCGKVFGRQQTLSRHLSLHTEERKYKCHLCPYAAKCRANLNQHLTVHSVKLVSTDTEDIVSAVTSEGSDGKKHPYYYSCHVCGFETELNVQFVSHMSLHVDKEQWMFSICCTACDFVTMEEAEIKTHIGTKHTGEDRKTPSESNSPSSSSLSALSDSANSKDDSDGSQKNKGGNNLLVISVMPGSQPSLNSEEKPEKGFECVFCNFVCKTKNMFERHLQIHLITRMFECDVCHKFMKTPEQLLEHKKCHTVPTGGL

Row | Sequence | binding result ([1]; legend: ZNF827 and mutants display no binding to ds DNA) | binding result ([2]; ds counterpart of pentaprobes) | binding result [3] | binding result ([1]; any of the mutant proteins) | binding result ([2]; ds probe treated with Exo VII)
1 | CGCTCTATTCTACTGTCCTGTGCATTCAATCGTTGAGTTCGATCTAGTCTCGTCTAACCCTCCCCTGCTCCGCTGGTCTGGCCTCGCCTATCCTACCCAT (double strand) [ds pentaprobe 3-9] | no binding | no binding | – | – | –
2 | TTAGGGTTAGGGTTAGGG (double strand) [ds telomeric oligo] | – | – | no binding | no binding | no binding

No signal at the amounts used counts as a negative. Protein sequences can lack the tags named with them.
